Reference: US20210261642A1, “SOLUBILITY OF GLP-1 PEPTIDE” (Novo Nordisk A/S, priority 2017, published 2021)
This continues a long series; more values of the same kind are listed elsewhere.

Assay: Assay (I): Determination of Solubility (96-well plate, pH 3.0-11.0, organic solvent 0-70% w/w, UV absorption at 280 nm)
Format: physicochemical
Details: Method 1
Description: Assay (I): Determination of Solubility
96-Well Plate Preparation
96-well plates containing target peptide in a solid form were prepared in one of two ways:
Method 1 (evaporation): Addition of 100 μl stock solution of said peptide at a concentration of 4-6 mg/ml to each well of a 96-well half area plate (150 μl well size). Subsequently the solvent was evaporated by applying a vacuum until the solvent was completely removed.
Method 2 (precipitation): Addition of a certain volume of a stock solution of said peptide containing to each well of a 96-well half area plate followed by the addition of a certain volume of concentrated phosphoric acid to obtain a pH of 4.6 followed by addition of a certain volume of ethanol resulting in a final ethanol concentration of 20% v/v. Subsequently the plate was stored at 4° C. for 1 h and then centrifuged at 4,000 rpm for 20 min. Finally the supernatant was removed. The concentration of the stock solution was chosen in a way that the final amount of peptide after supernatant removal was >0.4 mg per well.
In both cases the stock solution was prepared by adding de-ionized water to a certain amount of powder of said peptide followed by a stepwise addition of small amounts of a concentrated sodium hydroxide solution until said peptide was completely in solution.
To determine solubility of a target peptide at different pH and organic solvent concentrations, two different buffer systems were used in independent experiments to cover the whole range from pH 3.0 to pH 11.0. Buffer system 1 covers pH 3.0-7.5 and buffer system 2 covers pH 7.5-11.0. For each buffer system 96 different solvent compositions were premixed in the following way: • 1. A low pH buffer (adjusted to either pH 3.0 or pH 7.5) and a high pH buffer (adjusted to either pH 7.5 or pH 11.0) were mixed at 8 different ratios to obtain values between pH 3.0 and pH 7.5 or pH 7.5 and pH 11.0, respectively. The total volume after mixing was 300 μl. • 2. 12 different amounts of organic solvent were then added to these buffers to obtain organic solvent (e.g. ethanol) concentrations between 0 and 70% w/w. • 3. Water was then added to obtain a total weight of 1.0 g of solvent in each well.
After preparing the 96 different solvent systems, 100 μl of each system was transferred to the 96-well plate containing the solid form of the target peptide (prepared as described in the section “96-well plate preparation”). The plate was then stored at a given temperature (between 5° C. and 70° C.) for a given time on a rotating shaker set to 400 rpm. At regular time intervals the plate was centrifuged (4,000 rpm for 10 min) and a 10 μl sample was taken from each well. The samples were then analysed by UV absorption at 280 nm for peptide quantification. Peptide concentration results are given as UV absorption at 280 nm of the sample subtracted UV absorption at 280 nm of a well comprising 10 μl water.
The buffers used were as follows: • Buffer system 1 (for the pH range from pH 3.0-7.5)
• Buffer system 2 (for the pH ranae from pH 7.5-11.0)
Solubility of liraglutide was determined using Assay (I) described herein. Liraglutide was prepared using Method 1 (evaporation) or Method 2 (precipitation) as described in subsection “96-well plate preparation”.

[1] = MeCN 25.5% w/w, pH 10.0, 70° C.
[2] = MeCN 25.5% w/w, pH 10.5, 70° C.
[3] = MeCN 25.5% w/w, pH 11.0, 70° C.

CCCCCCCCCCCCCCCC(=O)N[C@@H](CCC(=O)NCCCC[C@H](NC(=O)[C@H](C)NC(=O)[C@H](C)NC(=O)[C@H](CCC(N)=O)NC(=O)CNC(=O)[C@H](CCC(=O)O)NC(=O)[C@H](CC(C)C)NC(=O)[C@H](Cc1ccc(O)cc1)NC(=O)[C@H](CO)NC(=O)[C@H](CO)NC(=O)[C@@H](NC(=O)[C@H](CC(=O)O)NC(=O)[C@H](CO)NC(=O)[C@@H](NC(=O)[C@H](Cc1ccccc1)NC(=O)[C@@H](NC(=O)CNC(=O)[C@H](CCC(=O)O)NC(=O)[C@H](C)NC(=O)[C@@H](N)Cc1cnc[nH]1)[C@@H](C)O)[C@@H](C)O)C(C)C)C(=O)N[C@@H](CCC(=O)O)C(=O)N[C@@H](Cc1ccccc1)C(=O)N[C@H](C(=O)N[C@@H](C)C(=O)N[C@@H](Cc1c[nH]c2ccccc12)C(=O)N[C@@H](CC(C)C)C(=O)N[C@H](C(=O)N[C@@H](CCCNC(=N)N)C(=O)NCC(=O)N[C@@H](CCCNC(=N)N)C(=O)NCC(=O)O)C(C)C)[C@@H](C)CC)C(=O)O [liraglutide, Arg34,Lys26-(N-epsilon-(gamma-L-glutamyl(N-alfa-hexadecanoyl)))-GLP-1(7-37)]
Peptide concentration after 5 min (MeCN 25.5% w/w, pH 6.9, 70° C.): 3.8 mg/mL
Peptide concentration after 180 min (MeCN 25.5% w/w, pH 6.9, 70° C.): 3.5 mg/mL
Peptide concentration after 5 min (MeCN 25.5% w/w, pH 6.9, RT): 1.2 mg/mL
Peptide concentration after 180 min (MeCN 25.5% w/w, pH 6.9, RT): 3.5 mg/mL
Peptide concentration after 24 h (MeCN 25.5% w/w, pH 6.9, RT): 1.4 mg/mL
Peptide concentration after 5 min (MeCN 25.5% w/w, pH 7.5, 5° C.): 1.3 mg/mL
Peptide concentration after 180 min (MeCN 25.5% w/w, pH 7.5, 5° C.): 3.8 mg/mL
Peptide concentration after 24 h (MeCN 25.5% w/w, pH 7.5, 5° C.): >4.0 mg/mL
Peptide concentration after 5 min (MeCN 25.5% w/w, pH 7.5, 70° C.): >4.0 mg/mL
Peptide concentration after 180 min (MeCN 25.5% w/w, pH 7.5, 70° C.): >4.0 mg/mL
Peptide concentration after 5 min (MeCN 25.5% w/w, pH 7.5, RT): 1.4 mg/mL
Peptide concentration after 180 min (MeCN 25.5% w/w, pH 7.5, RT): >4.0 mg/mL
Peptide concentration after 24 h (MeCN 25.5% w/w, pH 7.5, RT): >4.0 mg/mL
Peptide concentration after 5 min (MeCN 25.5% w/w, pH 8.0, 70° C.): >4.0 mg/mL
Peptide concentration after 180 min (MeCN 25.5% w/w, pH 8.0, 70° C.): >4.0 mg/mL
Peptide concentration after 5 min (MeCN 25.5% w/w, pH 8.0, RT): 1.1 mg/mL
Peptide concentration after 180 min (MeCN 25.5% w/w, pH 8.0, RT): 3.9 mg/mL
Peptide concentration after 24 h (MeCN 25.5% w/w, pH 8.0, RT): >4.0 mg/mL
Peptide concentration after 5 min (MeCN 25.5% w/w, pH 8.5, 70° C.): 4.0 mg/mL
Peptide concentration after 180 min (MeCN 25.5% w/w, pH 8.5, 70° C.): >4.0 mg/mL
Peptide concentration after 5 min (MeCN 25.5% w/w, pH 8.5, RT): 1.0 mg/mL
Peptide concentration after 180 min (MeCN 25.5% w/w, pH 8.5, RT): >4.0 mg/mL
Peptide concentration after 24 h (MeCN 25.5% w/w, pH 8.5, RT): >4.0 mg/mL
Peptide concentration after 5 min (MeCN 25.5% w/w, pH 9.0, 70° C.): 3.7 mg/mL
Peptide concentration after 180 min (MeCN 25.5% w/w, pH 9.0, 70° C.): >4.0 mg/mL
Peptide concentration after 5 min (MeCN 25.5% w/w, pH 9.0, RT): 0.5 mg/mL
Peptide concentration after 180 min (MeCN 25.5% w/w, pH 9.0, RT): 3.5 mg/mL
Peptide concentration after 24 h (MeCN 25.5% w/w, pH 9.0, RT): >4.0 mg/mL
Peptide concentration after 5 min (MeCN 25.5% w/w, pH 9.5, 70° C.): >4.0 mg/mL
Peptide concentration after 180 min (MeCN 25.5% w/w, pH 9.5, 70° C.): >4.0 mg/mL
Peptide concentration after 5 min (MeCN 25.5% w/w, pH 9.5, RT): 1.5 mg/mL
Peptide concentration after 180 min (MeCN 25.5% w/w, pH 9.5, RT): >4.0 mg/mL
Peptide concentration after 24 h (MeCN 25.5% w/w, pH 9.5, RT): >4.0 mg/mL
Peptide concentration after 5 min [1]: >4.0 mg/mL
Peptide concentration after 180 min [1]: >4.0 mg/mL
Peptide concentration after 5 min (MeCN 25.5% w/w, pH 10.0, RT): 1.6 mg/mL
Peptide concentration after 180 min (MeCN 25.5% w/w, pH 10.0, RT): >4.0 mg/mL
Peptide concentration after 24 h (MeCN 25.5% w/w, pH 10.0, RT): >4.0 mg/mL
Peptide concentration after 5 min [2]: >4.0 mg/mL
Peptide concentration after 180 min [2]: >4.0 mg/mL
Peptide concentration after 5 min (MeCN 25.5% w/w, pH 10.5, RT): 1.7 mg/mL
Peptide concentration after 180 min (MeCN 25.5% w/w, pH 10.5, RT): >4.0 mg/mL
Peptide concentration after 24 h (MeCN 25.5% w/w, pH 10.5, RT): >4.0 mg/mL
Peptide concentration after 5 min [3]: >4.0 mg/mL
Peptide concentration after 180 min [3]: >4.0 mg/mL
Peptide concentration after 5 min (MeCN 25.5% w/w, pH 11.0, RT): 1.2 mg/mL
Peptide concentration after 180 min (MeCN 25.5% w/w, pH 11.0, RT): >4.0 mg/mL
Peptide concentration after 24 h (MeCN 25.5% w/w, pH 11.0, RT): >4.0 mg/mL
Peptide concentration after 5 min (MeCN 31.8% w/w, pH 3.0, 5° C.): 1.0 mg/mL
Peptide concentration after 180 min (MeCN 31.8% w/w, pH 3.0, 5° C.): 0.7 mg/mL
